From patent US6353089B1, “Method for stimulating CTLs with peptides” (Ludwig Institute for Cancer Research, priority 1994, dated 2002)
Some entries share one result that the patent states for a list of compounds.

Target: T1, HLA-A2 molecules (Homo sapiens, UniProt P04439, D140Y/D185E/D98H/E176V/E277Q/G131W/G231S/I119V/I121R/I166T/I218V/L300P/L318F/N151K/N90K/P208A/P217A/Q86G/Q94H/R138H/R169H/T345S)
T1 construct: endogenous in cells; host or cells: 174 CEM.T2 (T2) cells
Assay: HLA-A2 binding (stabilization) assay on T2 cells, mean fluorescence ratio
Conditions: peptide 0.1 mM
Excerpt: To determine whether or not peptides bound to HLA-A2 molecules, cell line 174 CEM.T2 (hereafter “T2”) was used. This cell line is described by Cerundolo et al., Nature 345: 449-452 (1990), and Spies et al., Nature 348: 744-747 (1990), the disclosures of which are incorporated by reference. This is a cell line deficient in the pathway which supplies peptides to the endoplasmic reticulum, the site of assembly of MHC class I heterodimers. It can assemble MHC class-I molecules, but these are unstable, and, on cell lysis, dissociate into free heavy and light chains during overnight incubation. The heterodimers can, however, be stabilized in vitro via addition of appropriate peptide ligands, as per Townsend et al., Nature 340: 443-448 (1989); Townsend et al., Cell 62: […] (1990); Cerundolo et al., supra; Schumacher et al., Nature 350: 703-706 (1991); Elliot et al., Nature 351: 402-406 (1991); Elvin et al., Eur. J. Immunol. 21 : 2025-2031 (1991). The thus stabilized molecules can be immunoprecipitated with antibodies specific for the MHC class-I molecule.
In light of this background, the T2 cells were washed in serum free IMDM medium, and then 1.0×10^6 cells were suspended in 400 ul of the serum free IMDM medium, together with 100 ul synthetic peptide (final concentration: 0.1 mM, 1% DMSO). The mixture was incubated, overnight, at 37° C. Following incubation, the cells were washed and stained, successively, with HLA-A2 specific monoclonal antibody BB7.2, and FITC labelled, binding fragments of polyclonal goat anti-mouse IgG. Fluorescence ratio was calculated by the following formula: [formula]
This yielded the “mean fluorescence ratio” or MFR. In accordance with Nijman et al, supra, an MFR greater than 1.5 indicates binding to HLA-A2.

ALSRKVAEL [Peptide M3-108.116, MAGE-3 derived peptide]
MFR (mean fluorescence ratio) (in some of the experimental runs, listed as M3108.116): less than 1.5

IMPKAGLLI [Peptide M3-195.203]
MFR (mean fluorescence ratio) (overnight 37° C., BB7.2 staining, MFR greater than 1.5 indicates binding to HLA-A2, listed as SEQ ID NO: 3): > 1.5

TLVEVTLGEV [Peptide M3-44.53]
MFR (mean fluorescence ratio) (overnight 37° C., BB7.2 staining, MFR greater than 1.5 indicates binding to HLA-A2, listed as SEQ ID NO: 1): > 1.5
